# Values from PubChem BioAssay AID652243 (Drosophila RNAi Screening Center, 2013).
# Aim: 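Knock-downs that decrease or increase androgen receptor reporter signal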 (primary screen)
# System: Drosophila S2R+ cells
# Knock-down reagent: long dsRNA against Drosophila genes
# Time to read-out: 72 h (48 h, then 24 h hormone)
# Conditions: synthetic androgen R1881 at 10 nM for 24 h
# Measurement: 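Per-well raw luminescence of the androgen-driven firefly reporter and of the Renilla control, two replicates each, without normalisation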
# Scale: firefly reporter light: higher = more light from androgen-responsive reporter; Renilla control light: higher = more constitutive control signal (cell number, transfection)
# Hit rule: 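Hit when the log firefly-to-Renilla ratio dropped or increased by a fixed fold versus the mean of GFP or LacZ controls across duplicate plates; lowering cut given as 1.5 and as 3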
# Meaning of the calls: active = hit: reporter lowered or raised; inactive = no hit
# The screen tested about 24,000 reagents; shown is a random part of those with a known target gene and a result. Of all reagents, 246 (1%) are marked active. 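Plates not normalised; calls are printed but the firefly/Renilla ratio behind them is not deposited; fold cut for lowering reported inconsistently.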 Raw values are not corrected between plates. A plus sign joins genes that one reagent is predicted to hit. The record does not give: the amount of reagent.
gene,DRSC id,"firefly reporter light, replicate 1","firefly reporter light, replicate 2","Renilla control light, replicate 1","Renilla control light, replicate 2",call
CG7332,DRSC20038,45932,1.48e5,4.41e5,1.08e6,inactive
CG7332,DRSC28841,4.48e5,4.41e5,1.16e6,1.31e6,inactive
CG7332,DRSC39002,5.32e5,5.48e5,1.38e6,1.28e6,inactive
CaMKI,DRSC17162,1.11e5,1.44e5,1.25e6,8.87e5,inactive
CaMKI,DRSC36713,,,,,inactive
CaMKI,DRSC36714,,,,,inactive
alpha-Cat,DRSC11917,3.80e5,4.36e5,2.61e6,2.62e6,inactive
stw,DRSC04842,4.43e5,3.56e5,1.78e6,1.61e6,inactive
stw,DRSC04843,4.56e5,3.81e5,1.87e6,1.92e6,inactive
stw,DRSC22527,7.11e5,6.40e5,3.07e5,2.51e5,inactive
stw,DRSC26018,4.56e5,4.19e5,7.72e5,7.41e5,inactive
Rs1,DRSC05945,1.19e6,5.94e5,1.98e6,9.65e5,inactive
Rs1,DRSC26592,4.26e5,4.54e5,7.06e5,7.27e5,inactive
eater,DRSC15969,5.46e5,6.08e5,2.51e6,2.23e6,inactive
eater,DRSC22254,9.09e5,1.19e6,1.19e6,1.23e6,inactive
eater,DRSC29945,6.58e5,5.29e5,9.82e5,1.06e6,inactive
CG32486,DRSC08413,2.38e5,1.09e5,5.71e5,4.98e5,inactive
CG32486,DRSC08488,1.75e5,2.22e5,1.93e6,2.71e6,inactive
mRpL20,DRSC09828,2.02e5,1.58e5,2.66e6,2.46e6,inactive
Nup44A,DRSC07248,1.13e6,4.73e5,2.14e6,1.30e6,inactive
Nup44A,DRSC28141,3.06e5,3.89e5,1.30e6,1.09e6,inactive
CG15084,DRSC06515,6.09e5,9.67e5,2.14e6,2.32e6,inactive
CG15084,DRSC21403,7.97e5,8.76e5,1.75e6,1.80e6,inactive
CG15084,DRSC27128,2.91e5,2.48e5,6.40e5,7.19e5,inactive
CG17211,DRSC02587,1.95e5,2.47e5,1.03e6,1.35e6,inactive
CG8578,DRSC20114,97567,1.59e5,9.81e5,7.62e5,inactive
CG42458,DRSC23129,3.78e5,3.77e5,9.05e5,1.13e6,inactive
CG42458,DRSC23261,6.87e5,6.38e5,1.19e6,1.10e6,inactive
CG42458,DRSC26691,3.01e5,2.87e5,8.04e5,8.08e5,inactive
CG42458,DRSC29831,3.95e5,3.63e5,1.44e6,1.28e6,inactive
vg,DRSC07715,2.04e5,1.69e5,2.29e6,2.54e6,inactive
vg,DRSC22669,1.02e6,9.22e5,1.29e6,1.20e6,inactive
vg,DRSC29857,4.36e5,3.89e5,1.11e6,1.09e6,inactive

Continued (9 carried over from the part before).
gene,DRSC id,"firefly reporter light, replicate 1","firefly reporter light, replicate 2","Renilla control light, replicate 1","Renilla control light, replicate 2",call
CG17211,DRSC02587,1.95e5,2.47e5,1.03e6,1.35e6,inactive
CG8578,DRSC20114,97567,1.59e5,9.81e5,7.62e5,inactive
CG42458,DRSC23129,3.78e5,3.77e5,9.05e5,1.13e6,inactive
CG42458,DRSC23261,6.87e5,6.38e5,1.19e6,1.10e6,inactive
CG42458,DRSC26691,3.01e5,2.87e5,8.04e5,8.08e5,inactive
CG42458,DRSC29831,3.95e5,3.63e5,1.44e6,1.28e6,inactive
vg,DRSC07715,2.04e5,1.69e5,2.29e6,2.54e6,inactive
vg,DRSC22669,1.02e6,9.22e5,1.29e6,1.20e6,inactive
vg,DRSC29857,4.36e5,3.89e5,1.11e6,1.09e6,inactive
RpL23A,DRSC08694,7.23e5,2.12e5,1.00e6,4.17e5,inactive
RpL23A,DRSC22035,6.37e5,6.38e5,2.67e6,1.56e6,inactive
RpL23A,DRSC25828,1.59e5,1.64e5,7.10e5,4.08e5,inactive
Ten-a,DRSC18924,1.82e6,1.04e6,2.56e6,9.72e5,inactive
Ten-a,DRSC19700,4.89e5,4.59e5,3.69e6,4.17e6,inactive
Ten-a,DRSC19793,4.23e5,4.28e5,3.62e6,3.98e6,inactive
Ten-a,DRSC19864,5.36e5,6.36e5,3.61e6,3.84e6,inactive
Ten-a,DRSC19865,5.60e5,4.91e5,4.11e6,3.14e6,inactive
Ten-a,DRSC20290,4.59e5,3.92e5,2.93e6,3.42e6,inactive
Ten-a,DRSC21461,7.79e5,6.78e5,1.93e6,1.53e6,inactive
Ten-a,DRSC23016,6.43e5,1.12e6,1.28e6,1.77e6,inactive
Ten-a,DRSC29598,8.33e5,9.21e5,1.65e6,1.65e6,inactive
CG6707,DRSC10697,2.20e5,3.98e5,3.49e6,2.91e6,inactive
CG41367 (retired record),DRSC38653,8.57e5,8.14e5,2.03e6,2.37e6,inactive
CG4853,DRSC06898,3.98e5,1.19e5,6.18e5,4.88e5,inactive
CG4853,DRSC28240,3.91e5,6.29e5,6.17e5,1.01e6,inactive
CG8490,DRSC07194,7.30e5,7.47e5,1.85e6,2.04e6,inactive
CG8490,DRSC27075,5.10e5,2.71e5,9.39e5,8.44e5,inactive
Reph,DRSC00634,8.54e5,7.86e5,3.69e6,2.84e6,inactive
Reph,DRSC22031,9.72e5,1.08e6,2.59e6,2.35e6,inactive
Reph,DRSC29417,5.36e5,5.84e5,1.23e6,1.23e6,inactive
CG13538,DRSC04180,3.75e5,3.75e5,2.24e6,1.49e6,inactive
CG8010,DRSC20072,91673,92303,6.77e5,8.44e5,inactive
CG8010,DRSC26277,1.91e5,2.33e5,3.49e5,4.53e5,inactive
IFT20 + CG10395,DRSC22660,7.88e5,7.50e5,9.29e5,7.11e5,inactive
IFT20 + CG10395,DRSC27079,3.87e5,2.72e5,1.05e6,9.92e5,inactive
yuri,DRSC01453,1.11e5,1.26e5,3.61e5,4.34e5,inactive
yuri,DRSC01943,1.80e5,1.82e5,2.01e6,2.31e6,inactive
yuri,DRSC01972,7.57e5,5.29e5,1.83e6,1.49e6,inactive
yuri,DRSC28910,5.37e5,4.35e5,9.07e5,1.00e6,inactive
tutl,DRSC00441,60035,51776,4.62e5,6.67e5,inactive
tutl,DRSC00442,1.05e5,1.04e5,7.90e5,8.13e5,inactive
tutl,DRSC00443,66058,42550,5.94e5,4.33e5,inactive
tutl,DRSC27605,2.32e5,2.01e5,4.74e5,6.73e5,inactive
CG3769,DRSC02723,70110,97851,1.16e6,1.03e6,inactive
babo,DRSC07581,2.24e5,1.50e5,1.54e6,1.30e6,inactive
babo,DRSC36676,,,,,inactive
babo,DRSC36677,,,,,inactive
Poxn,DRSC05589,1.06e5,1.53e5,2.02e5,3.11e5,inactive
Poxn,DRSC07512,78835,1.11e5,1.83e6,1.83e6,inactive
Poxn,DRSC23830,4.11e5,4.02e5,6.63e5,6.50e5,inactive
